One molecule from paper PMC3781056, “New Pyrazolopyrimidine Inhibitors of Protein Kinase D as Potent Anticancer Agents for Prostate Cancer Cells” (PLoS ONE, 2013) can be followed below.

Each structure is given as a SMILES string.

The target of the experiment is T1, PKD1 (Homo sapiens, UniProt Q15139).
T1 construct: GST; purchased Enzo Life sciences (Farmingdale, NY)
T1 sequence (Q15139 1-912): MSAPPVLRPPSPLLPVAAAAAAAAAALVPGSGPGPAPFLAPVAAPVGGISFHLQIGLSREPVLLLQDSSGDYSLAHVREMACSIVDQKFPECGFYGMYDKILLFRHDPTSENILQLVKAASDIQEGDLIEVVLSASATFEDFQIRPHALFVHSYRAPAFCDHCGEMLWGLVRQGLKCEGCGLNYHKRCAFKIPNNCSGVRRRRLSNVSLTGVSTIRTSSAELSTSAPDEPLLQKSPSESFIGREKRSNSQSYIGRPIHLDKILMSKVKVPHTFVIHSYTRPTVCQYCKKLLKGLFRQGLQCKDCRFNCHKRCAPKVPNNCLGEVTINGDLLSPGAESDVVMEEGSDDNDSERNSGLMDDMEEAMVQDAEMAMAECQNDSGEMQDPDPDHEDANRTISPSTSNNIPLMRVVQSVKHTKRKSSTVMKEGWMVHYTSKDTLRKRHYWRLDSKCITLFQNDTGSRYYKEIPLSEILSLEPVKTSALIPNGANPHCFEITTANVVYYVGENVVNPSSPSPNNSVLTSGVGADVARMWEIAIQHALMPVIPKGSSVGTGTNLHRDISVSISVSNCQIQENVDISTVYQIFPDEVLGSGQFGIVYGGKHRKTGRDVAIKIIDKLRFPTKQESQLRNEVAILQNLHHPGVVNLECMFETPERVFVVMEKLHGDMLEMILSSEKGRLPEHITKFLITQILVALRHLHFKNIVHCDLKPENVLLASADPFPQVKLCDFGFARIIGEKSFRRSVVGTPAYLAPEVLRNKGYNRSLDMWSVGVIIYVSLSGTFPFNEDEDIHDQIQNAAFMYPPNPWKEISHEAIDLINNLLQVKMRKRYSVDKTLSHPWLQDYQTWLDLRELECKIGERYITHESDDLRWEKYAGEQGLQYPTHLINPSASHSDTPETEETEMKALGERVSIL
The experiment in a line: In vitro radiometric PKD1 screening assay at 1 µM. It counts as biochemical. The settings on record: targeted kinase inhibitor library screen, relative to DMSO. The procedure:
Phosphorylation of HDAC5 was detected in a kinase reaction having 1 µCi [γ-^32P] […] The reaction was incubated at 30°C for 10 minutes and 25 µL of the reaction was spotted on Whatman P81 filter paper. The filter paper was washed 3 times in 0.5% phosphoric acid, air dried and counted using Beckman LS6500 multipurpose scintillation counter. Percent PKD1 inhibition was graphed using GraphPad Prism software 5.0.

Turning to `O=C1NC(=O)c2c1c(-c1ccccc1)cc1[nH]c3ccc(O)cc3c21` [PD 407824], the “% PKD1 Inhibition” value worked out at 57%.
